Data as given in PubChem BioAssay AID1053208 (Peter MacCallum Cancer Centre, 2014).
This is an unselected part of about 17,000 reagents tested. 788 of them (4.7%) were called active. 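Calls rest on z-score classes alone; an extra cut-off of viability at most 70% of control was not applied to them.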 A number with no mark means an inactive call. Not all columns of the deposit are shown.

Purpose: 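Find knock-downs that sensitise mouse osteosarcoma cells to doxorubicin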 (primary screen)
System: mouse osteosarcoma cells, early-passage culture from an engineered mouse model of fibroblastic bone tumour
Reagent: siRNA pool against mouse genes, 40 nM
Duration: about 120 h (48 h before drug, then 72 h with drug)
Treatment: doxorubicin 100 nM for 72 h, roughly 30-40% inhibitory dose
Measured: 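Luminescent ATP signal taken as viability with or without 100 nM doxorubicin for 72 h; mean of two wells set against non-targeting siRNA and turned into robust z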
Direction: viability z-score with doxorubicin: higher = more viable cells under doxorubicin; viability z-score without drug: higher = more viable cells with knock-down alone
Call rule: 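a pool counts as active when its viability z-score with doxorubicin is -2 or below and its z-score without drug lies between -2 and 2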

Gnrhr (gonadotropin releasing hormone receptor) scored combined z-score class no change with or without drug; viability z-score with doxorubicin 0.22; viability z-score without drug 0.17.
Against Eef1akmt2 (EEF1A lysine methyltransferase 2), the entry reads combined z-score class low cell count with doxorubicin only (active); viability z-score with doxorubicin -2.02; viability z-score without drug 1.35.
Knock-down of Raet1c (retinoic acid early transcript gamma) gave: combined z-score class no change with or without drug; viability z-score with doxorubicin 0; viability z-score without drug 0.34.
Txndc12 (thioredoxin domain containing 12 (endoplasmic reticulum)) gave combined z-score class no change with or without drug; viability z-score with doxorubicin 0.67; viability z-score without drug -0.17.
With knock-down of Ces2a (carboxylesterase 2A) the results were combined z-score class no change with or without drug; viability z-score with doxorubicin 0; viability z-score without drug 0.51.
Adam24 (ADAM metallopeptidase domain 24) gave combined z-score class no change with or without drug; viability z-score with doxorubicin -0.67; viability z-score without drug -0.51.
After knock-down of Ecpas (Ecm29 proteasome adaptor and scaffold), the screen gave combined z-score class no change with or without drug; viability z-score with doxorubicin 0.22; viability z-score without drug -0.17.
Igsf8 (immunoglobulin superfamily, member 8) scored combined z-score class no change with or without drug; viability z-score with doxorubicin -0.56; viability z-score without drug 0.84.
Knock-down of Gm11545 (predicted gene 11545) gave: combined z-score class no change with or without drug; viability z-score with doxorubicin 0.9; viability z-score without drug -0.17.
Rnf215 (ring finger protein 215) gave combined z-score class no change with or without drug; viability z-score with doxorubicin -0.67; viability z-score without drug -0.51.
For 4632415L05Rik (RIKEN cDNA 4632415L05 gene), the entry reads combined z-score class no change with or without drug; viability z-score with doxorubicin 0.34; viability z-score without drug 0.17.
After knock-down of Foxo6 (forkhead box O6), the record shows combined z-score class no change with or without drug; viability z-score with doxorubicin 0; viability z-score without drug -0.67.
Silencing of Fxyd6 (FXYD domain-containing ion transport regulator 6) came out at: combined z-score class no change with or without drug; viability z-score with doxorubicin 0.11; viability z-score without drug 0.34.
Obp2a (odorant binding protein 2A) showed combined z-score class no change with or without drug; viability z-score with doxorubicin 1.57; viability z-score without drug 0.17.
Knock-down of Tmem100 (transmembrane protein 100) came out at: combined z-score class high cell count without drug only; viability z-score with doxorubicin -1.12; viability z-score without drug 2.36.
Knock-down of Ugdh (UDP-glucose dehydrogenase) gave: combined z-score class no change with or without drug; viability z-score with doxorubicin -1.8; viability z-score without drug -0.84.
Silencing of Scd3 (stearoyl-coenzyme A desaturase 3) gave: combined z-score class no change with or without drug; viability z-score with doxorubicin 0.67; viability z-score without drug 0.17.
After knock-down of Tubb4a (tubulin, beta 4A class IVA), the record shows combined z-score class no change with or without drug; viability z-score with doxorubicin 0.22; viability z-score without drug 1.01.
Against Wrnip1 (Werner helicase interacting protein 1) the deposit lists combined z-score class no change with or without drug; viability z-score with doxorubicin 1.24; viability z-score without drug 0.51.
Psg17 (pregnancy specific beta-1-glycoprotein 17) showed combined z-score class no change with or without drug; viability z-score with doxorubicin -0.45; viability z-score without drug -1.18.
With knock-down of Clcn2 (chloride channel, voltage-sensitive 2), the screen gave combined z-score class no change with or without drug; viability z-score with doxorubicin 0.79; viability z-score without drug 0.67.
Against Ttyh3 (tweety family member 3), the entry reads combined z-score class no change with or without drug; viability z-score with doxorubicin -1.12; viability z-score without drug -1.52.
Silencing of Rnf135 (ring finger protein 135) came out at: combined z-score class high cell count with doxorubicin only; viability z-score with doxorubicin 2.14; viability z-score without drug 1.85.
Hnrnpdl (heterogeneous nuclear ribonucleoprotein D-like) gave combined z-score class no change with or without drug; viability z-score with doxorubicin 0.22; viability z-score without drug -0.34.
Nr1h3 (nuclear receptor subfamily 1, group H, member 3) scored combined z-score class no change with or without drug; viability z-score with doxorubicin 1.57; viability z-score without drug -0.17.
Knock-down of Yars2 (tyrosyl-tRNA synthetase 2 (mitochondrial)) gave: combined z-score class no change with or without drug; viability z-score with doxorubicin -1.8; viability z-score without drug -1.18.
Against Islr2 (immunoglobulin superfamily containing leucine-rich repeat 2), the values are combined z-score class no change with or without drug; viability z-score with doxorubicin 0.79; viability z-score without drug -0.34.
After knock-down of Spsb4 (splA/ryanodine receptor domain and SOCS box containing 4), the screen gave combined z-score class no change with or without drug; viability z-score with doxorubicin -0.34; viability z-score without drug -0.84.
Silencing of Or4n4 (olfactory receptor family 4 subfamily N member 4) came out at: combined z-score class high cell count without drug only; viability z-score with doxorubicin 0.67; viability z-score without drug 2.19.
Knock-down of Fundc2b (FUN14 domain containing 2B) resulted in: combined z-score class no change with or without drug; viability z-score with doxorubicin -0.67; viability z-score without drug 1.01.
Prcc (papillary renal cell carcinoma (translocation-associated)) gave combined z-score class no change with or without drug; viability z-score with doxorubicin 0.45; viability z-score without drug 1.35.
Against Kifc3 (kinesin family member C3) the deposit lists combined z-score class no change with or without drug; viability z-score with doxorubicin -0.45; viability z-score without drug -0.84.
Spats2 (spermatogenesis associated, serine-rich 2) gave combined z-score class low cell count without drug only; viability z-score with doxorubicin -0.9; viability z-score without drug -2.02.
Rab1b (RAB1B, member RAS oncogene family) showed combined z-score class no change with or without drug; viability z-score with doxorubicin 0.9; viability z-score without drug 1.69.
With knock-down of Tox (thymocyte selection-associated high mobility group box), the screen gave combined z-score class no change with or without drug; viability z-score with doxorubicin 1.01; viability z-score without drug -0.51.
With knock-down of Wdr6 (WD repeat domain 6), the screen gave combined z-score class no change with or without drug; viability z-score with doxorubicin 0.34; viability z-score without drug 1.18.

Called active, among the entries above:
Eef1akmt2 (EEF1A lysine methyltransferase 2): combined z-score class = low cell count with doxorubicin only (active); viability z-score with doxorubicin = -2.02; viability z-score without drug = 1.35
